Data from article PMC2727916.
No constants are given. Whether binding was seen depends on the method and setting. For part of these data: In cells and extracts the contact can be indirect. Some entries that bind do so weakly or less than the wild type. For part of these data: Sequences can lack the tags named with a protein.

Protein sequences, listed by entry. Tags and fused reporters are not part of them. Residues count along the entry.
UniProt P69566, residues 51-653: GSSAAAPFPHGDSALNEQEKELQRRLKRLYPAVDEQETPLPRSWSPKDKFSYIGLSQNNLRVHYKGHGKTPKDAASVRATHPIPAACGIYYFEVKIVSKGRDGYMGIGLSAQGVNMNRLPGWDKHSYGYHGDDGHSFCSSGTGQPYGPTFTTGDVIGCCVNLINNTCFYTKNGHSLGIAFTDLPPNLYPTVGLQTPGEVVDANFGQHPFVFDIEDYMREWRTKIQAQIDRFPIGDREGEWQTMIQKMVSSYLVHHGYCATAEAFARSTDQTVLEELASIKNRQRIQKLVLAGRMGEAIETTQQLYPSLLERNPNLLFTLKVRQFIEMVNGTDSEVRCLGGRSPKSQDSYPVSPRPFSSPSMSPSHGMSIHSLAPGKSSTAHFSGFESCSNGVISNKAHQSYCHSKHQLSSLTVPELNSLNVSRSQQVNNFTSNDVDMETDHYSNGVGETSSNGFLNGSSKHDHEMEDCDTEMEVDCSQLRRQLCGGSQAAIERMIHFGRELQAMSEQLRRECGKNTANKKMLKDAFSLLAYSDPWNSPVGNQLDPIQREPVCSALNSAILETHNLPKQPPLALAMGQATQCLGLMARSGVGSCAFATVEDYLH

T1: GASZ (Germ cell protein with Ankyrin repeats, Sterile alpha motif, and leucine Zipper), full-length mouse, yeast two-hybrid fusion (mouse) (UniProt Q8VD46)
T1 sequence: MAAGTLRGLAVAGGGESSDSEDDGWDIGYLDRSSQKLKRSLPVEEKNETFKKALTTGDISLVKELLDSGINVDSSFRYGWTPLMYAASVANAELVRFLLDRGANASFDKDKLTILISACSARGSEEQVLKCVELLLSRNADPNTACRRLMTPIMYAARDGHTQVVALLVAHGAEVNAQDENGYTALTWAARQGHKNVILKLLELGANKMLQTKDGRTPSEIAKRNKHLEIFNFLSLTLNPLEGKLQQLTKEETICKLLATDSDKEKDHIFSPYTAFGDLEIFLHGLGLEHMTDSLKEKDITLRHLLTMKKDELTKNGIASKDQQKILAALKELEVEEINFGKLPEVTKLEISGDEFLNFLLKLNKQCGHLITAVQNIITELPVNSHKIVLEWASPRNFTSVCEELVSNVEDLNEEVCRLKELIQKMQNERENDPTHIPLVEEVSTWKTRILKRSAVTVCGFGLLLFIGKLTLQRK

T2: GASZ, endogenous in mouse testis (mouse (endogenous in testis)) (UniProt Q8VD46)
T2 sequence: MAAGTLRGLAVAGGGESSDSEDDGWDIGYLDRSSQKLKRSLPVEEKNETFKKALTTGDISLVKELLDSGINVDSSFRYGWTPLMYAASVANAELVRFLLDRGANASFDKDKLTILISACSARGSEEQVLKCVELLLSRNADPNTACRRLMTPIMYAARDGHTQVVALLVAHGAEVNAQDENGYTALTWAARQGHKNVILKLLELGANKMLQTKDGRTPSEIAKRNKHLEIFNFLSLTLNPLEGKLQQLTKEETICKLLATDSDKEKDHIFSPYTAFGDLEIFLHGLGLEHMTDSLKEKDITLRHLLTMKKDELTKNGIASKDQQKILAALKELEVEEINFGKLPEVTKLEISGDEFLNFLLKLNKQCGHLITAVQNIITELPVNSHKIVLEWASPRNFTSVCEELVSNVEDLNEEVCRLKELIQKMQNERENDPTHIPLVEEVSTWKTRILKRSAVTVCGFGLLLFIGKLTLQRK


Experiments:
[1] = target: T1, GASZ (Germ cell protein with Ankyrin repeats, Sterile alpha motif, and leucine Zipper), full-length mouse, yeast two-hybrid fusion (mouse); assay: two-hybrid; full-length mouse GASZ bait mated with defined pGADT7 prey constructs; interaction quantified as fluorescent signal of equal numbers of mated cells on a 96 well oxygen biosensor plate (CLONTECH Matchmaker BioSensor Kit), 30°C, 24 hours
[2] = target: T1, GASZ (Germ cell protein with Ankyrin repeats, Sterile alpha motif, and leucine Zipper), full-length mouse, yeast two-hybrid fusion (mouse); assay: two-hybrid; library screen (CLONTECH Matchmaker): full-length mouse GASZ in pGBKT7 as bait against a 17-day-old mouse testis cDNA library; yeast mating, growth on SD Leu- Trp- Ade- His- X-alpha-Gal plates, pGADT7-Rec clones sequenced; confirmed by mating bait with prey constructs
[3] = target: T2, GASZ, endogenous in mouse testis (mouse (endogenous in testis)); assay: co-IP; 1 mg testicular lysate of 21-day-old WT mice, 0.5% NP-40 lysis buffer, pre-cleared, overnight at 4°C with anti-GASZ, anti-MIWI or no primary antibody, protein G beads in 5% BSA; western blot

Row | binding [1] | binding [2] | binding [3] | Molecule
1 | binds | binds |  | RANBP9 construct lacking its proline-rich amino terminus (aa 1-50), yeast two-hybrid prey (from UniProt P69566 51-653) (domain or fragment)
2 |  |  | binds | tudor-domain containing 1 (TDRD1), endogenous in mouse testis (protein, UniProt Q99MV1 1-1172) MMPRNNLEASTCKMAEPFNFEKKESKPPPQDPLRSPVAQHNHPTFRLKSPENGNTKNNFLLCEQNKQYLASQEDSSVVSSNPAVVNGEVGGSKGDRKPPPTGNPVSPLSLGNSSPPNQVKTKPSSNVTPEKSKKSHKLFENALSVNNPALFNSLGPPLRSTTCHRCGLFGSLRCSQCKQTYYCSTACQRRDWSSHSTICRPVQQSLNKLEDNKSPFETKAIEVKSEVDCPPGVTKEITAGAERVMFSDLRSLQLKKTMEIKGTVTEFKHPSNFYIQLYSSEVLENMNQLSTSLKETYANVVPEDGYLPVKGEVCVAKYTVDQTWNRAIVQAVDVLQRKAHVLYIDYGNEEMIPIDSVHPLSRGLDLFPPSAIKCCVSGVIPTAGEWSEGCVAAVKALLFEQFCSVKVMDILEEEVLTCAVDLVLQSSGKQLDHVLVEMGYGVKPGEQSSTEQSVDHSALEDVGRVTVESKIVTDRNALIPKVLTLNVGDEFCGVVAHIQTPEDFFCQQLQSGHKLAELQESLSEYCGHVIPRSDFYPTIGDVCCAQFSEDDQWYRASVLAYASEESVLVGYVDYGNFEILSLKRLCPIIPKLLDLPMQALNCVLAGVKPSLGIWTPEAVCVMKEMVQNRMVTVRVVGMLGTRALVELIDKSVAPHVSASKALIDSGFAIKEKDVADKGSSMHTASVPLAIEGPAEALEWTWVEFTVDETVDVVVCMMYSPGEFYCHFLKDDALEKLDDLNQSLADYCAQKPPNGFKAEIGRPCCAFFSGDGNWYRALVKEILPSGNVKVHFVDYGNVEEVTTDQLQAILPQFLLLPFQGMQCWLVDIQPPNKHWTKEATARFQACVVGLKLQARVVEITANGVGVELTDLSTPYPKIISDVLIREQLVLRCGSPQDSLMSRPANQHKQIDSHRVQASPSAEQWKTMELPVNKTIAANVLEIISPALFYAIPSEMSENQEKLCVLAAELLEHCNAQKGQPAYRPRTGDACCAKYTNDDFWYRAIVLETSESDVKVLYADYGNIETLPLSRVQPIPASHLELPFQIIRCSLEGPMELNGSCSQLVMELLRNAMLNQSVVLSVKAISKNVHAVSVEKCSENGMINIAENLVMCGLAENLTSKRKSASTKEIPHSRDCCCTELQKQIEKHEQILLFLLNNPTNQSKFTEMKKLLRS
3 |  |  | no binding | Maelstrom (MAEL), endogenous in mouse testis (protein, UniProt Q8BVN9 1-434) MPNRRASRNAYYFFVQEKIPELRRRGLPVARVADAIPYCSADWALLREDEKEKYSEMAREWRAAQGKDSGPSEKQKLVSTPLRRPGMLVPKPSISPPDMSNLSIKSDQALLGGIFYFLNIFSHGELPPHCEQRFLPCEIGCVKYSLQEGIMADFHSFIHPGEIPRGFRFHCQAASDSSHKIPISNFEFGHDQATVLQNLYKFIHPNPGNWPPIYCKSDDRARVNWCLKRMERASEIRQDLELLTVEDLVVGIYQQKFLKEPSKTWVRSLLDVAMWDYSSNTRCKWHEENDILFCALAVCKKIAYCISNSLATLFGIQLTGAHVPLQDYEASNSVTPKMVVLDAGRYQKLRVESPGFCHFNSYNQEQRSNTSTGYYPSGVKISGPHSSVRGRGITRLLESISNSSNNIHRFSSCETSLSPYTPQKDGYKPFSSFS
4 | binds | binds |  | GASZ (Germ cell protein with Ankyrin repeats, Sterile alpha motif, and leucine Zipper), full-length mouse, yeast two-hybrid fusion (protein, UniProt Q8VD46 1-475) MAAGTLRGLAVAGGGESSDSEDDGWDIGYLDRSSQKLKRSLPVEEKNETFKKALTTGDISLVKELLDSGINVDSSFRYGWTPLMYAASVANAELVRFLLDRGANASFDKDKLTILISACSARGSEEQVLKCVELLLSRNADPNTACRRLMTPIMYAARDGHTQVVALLVAHGAEVNAQDENGYTALTWAARQGHKNVILKLLELGANKMLQTKDGRTPSEIAKRNKHLEIFNFLSLTLNPLEGKLQQLTKEETICKLLATDSDKEKDHIFSPYTAFGDLEIFLHGLGLEHMTDSLKEKDITLRHLLTMKKDELTKNGIASKDQQKILAALKELEVEEINFGKLPEVTKLEISGDEFLNFLLKLNKQCGHLITAVQNIITELPVNSHKIVLEWASPRNFTSVCEELVSNVEDLNEEVCRLKELIQKMQNERENDPTHIPLVEEVSTWKTRILKRSAVTVCGFGLLLFIGKLTLQRK
